The text below walks through data of the supplement of paper PMC7858590.

Each structure is given as a SMILES string. ± gives the standard deviation of the averaged measurements. Over roughly 3,800 compounds, “cell shape (eccentricity) Z-score vs DMSO control” has its median near 1.1; the lowest 2% begin near -4.7. The list shows a part of the results.

The assay concerns human monocyte-derived macrophages (M0). Kind of assay: cell shape (eccentricity) Z-score vs DMSO control; higher = more elongated, M2-like morphology. The conditions noted are these: 20 µM; 24 h; macrophage state: M0 (M-CSF).
`CCCCC/C=C\C/C=C\C/C=C\C/C=C\CCCC(=O)O`: the “cell shape (Z-score)” value is -0.0753.

As to `CCCNC(=O)N1N=C(c2ccc(N)cc2)c2cc3c(cc2C1C)OCO3` (configuration not stated), the “cell shape (Z-score)” value is 2.69.

`COC(=O)C1=COC(O[C@@H]2O[C@H](CO)[C@@H](O)[C@H](O)[C@H]2O)[C@@H]2[C@@](C)(O)CC[C@]12O` (some centres not stated): the “cell shape (Z-score)” value was found to be 0.697.

As to `C=C1C(=O)O[C@H]2CC(C)C3CC[C@@]4(C)O[C@@]34CC12` (some centres not stated), the “cell shape (Z-score)” value amounted to 0.597 ± 0.82.

On to `CC(=O)O[C@@H]1[C@@H](O)[C@H](C)O[C@@H](Oc2c(-c3ccc(O)cc3)oc3cc(O[C@@H]4O[C@@H](C)[C@H](O)[C@@H](O)[C@H]4O)cc(O)c3c2=O)[C@@H]1O`, for which the “cell shape (Z-score)” value worked out at 1.24.

`Cn1cc(C(F)(F)F)nc1-c1ccc(OCC(O)CNCCOc2ccc(O)c(C(N)=O)c2)cc1` (configuration not stated): the “cell shape (Z-score)” value is 0.145.

For `COc1cc(-c2oc3cc(O)cc(O)c3c(=O)c2O[C@@H]2O[C@H](CO[C@@H]3O[C@@H](C)[C@H](O)[C@@H](O)[C@H]3O)[C@H](O)[C@H](O)[C@H]2O)ccc1O`, the “cell shape (Z-score)” value amounted to 1.63.

For the compound `Cc1[nH]c(/C=C2\C(=O)Nc3ccc(S(=O)(=O)Cc4c(Cl)cccc4Cl)cc32)c(C)c1C(=O)N1CCC[C@@H]1CN1CCCC1`, the “cell shape (Z-score)” value was -0.195.

As for `N[C@H](Cc1cc(I)c(Oc2ccc(O)c(I)c2)c(I)c1)C(=O)O`, the “cell shape (Z-score)” value was found to be 2.64.

With `COc1cc(O)c(C(=O)c2ccccc2)cc1O`, the “cell shape (Z-score)” value is -1.52.

On to `CCN(CC)CCNC(=O)c1ccc(NC(C)=O)cc1`, for which the “cell shape (Z-score)” value is -0.33.

For the compound `CC1(CN2CCC(n3c(=O)[nH]c4ccccc43)CC2)OCc2ccccc2-n2cccc21` (configuration not stated), the “cell shape (Z-score)” value stood at 0.719.

As for `COc1ccc2ccc(=O)oc2c1CC(O)C(C)(C)OC` (configuration not stated), the “cell shape (Z-score)” value turned out to be 3.41.

As to `COc1cc(O[C@@H]2O[C@H](CO[C@H]3OC[C@](O)(COC(=O)c4ccc(O)c(OC)c4)[C@H]3O)[C@@H](O)[C@H](O)[C@H]2O)ccc1O`, the “cell shape (Z-score)” value is -2.77.

Take `CC1(C)S[C@@H]2[C@H](NC(=O)[C@H](N)c3ccccc3)C(=O)N2[C@H]1C(=O)O`: the “cell shape (Z-score)” value was -1.1.

On to `COc1ccccc1C1(O)CCN(CCCn2c3ccccc3c3ccccc32)CC1`, for which the “cell shape (Z-score)” value is -0.844.

Consider `Cc1ncc([N+](=O)[O-])n1CC(C)O` (configuration not stated), for which the “cell shape (Z-score)” value came out at 2.31.

As to `COc1cc(-c2oc3cc(O)c(OC)c(O)c3c(=O)c2O[C@@H]2O[C@H](CO[C@@H]3O[C@H](CO)[C@@H](O)[C@H](O)[C@H]3O)[C@@H](O)[C@H](O)[C@H]2O[C@@H]2OCC(O)(CO)[C@H]2O)ccc1O` (some centres not stated), the “cell shape (Z-score)” value was 1.02.

In the case of `O=C(O)C(O)Cc1c[nH]c2ccccc12` (configuration not stated), the “cell shape (Z-score)” value was -0.763 ± 1.3.

With `CC(C)(C)c1ccc2cc(C#N)c(C#N)cc2c1`, the “cell shape (Z-score)” value was -0.135.

In the case of `c1ccc(C(NCCNC(c2ccccc2)c2ccccc2)c2ccccc2)cc1`, the “cell shape (Z-score)” value was found to be 2.99.

Turning to `NS(=O)(=O)c1cc2c(cc1Cl)N=C(CSCc1ccccc1)NS2(=O)=O`, the “cell shape (Z-score)” value is 3.11.
